The source of these data is article PMC5437280.

Protein sequences, listed by entry. Tags and fused reporters are not part of them. Lines headed by an entry give the natural chain unless they say otherwise; changes in a name come on top.
UniProt Q9LID3: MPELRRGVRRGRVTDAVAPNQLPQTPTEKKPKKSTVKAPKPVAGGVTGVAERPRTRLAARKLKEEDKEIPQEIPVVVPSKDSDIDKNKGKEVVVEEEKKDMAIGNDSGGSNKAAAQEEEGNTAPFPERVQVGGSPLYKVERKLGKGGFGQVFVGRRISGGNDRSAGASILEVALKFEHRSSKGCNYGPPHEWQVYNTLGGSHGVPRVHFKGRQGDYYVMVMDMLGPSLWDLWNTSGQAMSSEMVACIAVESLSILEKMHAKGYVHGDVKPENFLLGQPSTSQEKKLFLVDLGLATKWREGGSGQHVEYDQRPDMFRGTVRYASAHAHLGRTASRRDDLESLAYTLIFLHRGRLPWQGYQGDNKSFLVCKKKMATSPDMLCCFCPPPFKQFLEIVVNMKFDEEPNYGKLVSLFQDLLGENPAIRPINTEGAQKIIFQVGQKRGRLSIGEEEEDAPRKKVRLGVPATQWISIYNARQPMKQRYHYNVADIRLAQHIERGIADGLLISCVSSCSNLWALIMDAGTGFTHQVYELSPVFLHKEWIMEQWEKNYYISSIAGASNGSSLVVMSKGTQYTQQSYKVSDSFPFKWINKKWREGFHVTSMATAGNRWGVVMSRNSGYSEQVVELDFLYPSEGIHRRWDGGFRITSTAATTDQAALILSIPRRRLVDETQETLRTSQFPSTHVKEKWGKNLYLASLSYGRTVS
UniProt P14713: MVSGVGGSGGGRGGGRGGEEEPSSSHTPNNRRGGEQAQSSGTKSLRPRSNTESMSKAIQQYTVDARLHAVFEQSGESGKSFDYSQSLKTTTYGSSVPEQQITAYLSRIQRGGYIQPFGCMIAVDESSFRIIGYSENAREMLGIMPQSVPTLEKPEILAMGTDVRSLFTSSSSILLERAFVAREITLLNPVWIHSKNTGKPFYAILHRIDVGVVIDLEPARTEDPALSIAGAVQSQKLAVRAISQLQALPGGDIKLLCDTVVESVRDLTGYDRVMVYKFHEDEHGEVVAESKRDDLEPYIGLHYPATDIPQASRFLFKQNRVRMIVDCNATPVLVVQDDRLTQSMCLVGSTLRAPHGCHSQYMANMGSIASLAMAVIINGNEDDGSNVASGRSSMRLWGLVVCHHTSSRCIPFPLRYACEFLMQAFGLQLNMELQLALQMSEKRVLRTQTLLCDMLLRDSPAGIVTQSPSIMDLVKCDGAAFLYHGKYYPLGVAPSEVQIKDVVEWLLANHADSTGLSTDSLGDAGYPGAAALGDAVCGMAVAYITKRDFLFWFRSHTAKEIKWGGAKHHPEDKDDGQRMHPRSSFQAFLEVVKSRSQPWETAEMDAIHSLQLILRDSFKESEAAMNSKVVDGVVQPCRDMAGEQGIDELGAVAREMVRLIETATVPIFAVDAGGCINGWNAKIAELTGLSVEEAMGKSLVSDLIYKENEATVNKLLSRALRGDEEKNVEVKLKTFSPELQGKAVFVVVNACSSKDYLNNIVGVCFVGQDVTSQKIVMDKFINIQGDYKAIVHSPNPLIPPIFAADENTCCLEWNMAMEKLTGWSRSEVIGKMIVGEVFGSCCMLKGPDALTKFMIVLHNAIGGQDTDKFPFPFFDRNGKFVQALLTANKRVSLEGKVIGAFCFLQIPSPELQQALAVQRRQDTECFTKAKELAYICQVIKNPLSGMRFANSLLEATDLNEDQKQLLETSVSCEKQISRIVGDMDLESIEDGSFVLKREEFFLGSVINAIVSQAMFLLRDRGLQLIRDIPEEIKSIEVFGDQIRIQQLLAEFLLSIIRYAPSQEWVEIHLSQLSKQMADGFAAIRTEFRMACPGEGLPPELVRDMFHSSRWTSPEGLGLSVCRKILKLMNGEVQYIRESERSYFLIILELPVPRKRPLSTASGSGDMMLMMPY

Results are given in words; binding and its absence hold for the method and conditions named. In cells and extracts the contact can be indirect. Binding can be weak; no strength is given. For some assays here: Where a sequence is shown, tags or fusion partners need not be part of it.

For one assay, the target named is PPK1:CFP (Arabidopsis) (UniProt Q9LID3). The experiment in a line: co-IP; extracts of dark (Dk) or red-light-pulse (Rp) treated transgenic seedlings; PPK1:CFP bait precipitated with anti-GFP antibodies and protein A agarose, MOPS buffer pH 7.6, 150 mM NaCl, 4 °C; blots with anti-MYC, anti-phyB, anti-GFP.
Assay [1] addresses T1, PIF3:MYC (in vitro synthesized) (Arabidopsis) (UniProt O80536).
T1 sequence: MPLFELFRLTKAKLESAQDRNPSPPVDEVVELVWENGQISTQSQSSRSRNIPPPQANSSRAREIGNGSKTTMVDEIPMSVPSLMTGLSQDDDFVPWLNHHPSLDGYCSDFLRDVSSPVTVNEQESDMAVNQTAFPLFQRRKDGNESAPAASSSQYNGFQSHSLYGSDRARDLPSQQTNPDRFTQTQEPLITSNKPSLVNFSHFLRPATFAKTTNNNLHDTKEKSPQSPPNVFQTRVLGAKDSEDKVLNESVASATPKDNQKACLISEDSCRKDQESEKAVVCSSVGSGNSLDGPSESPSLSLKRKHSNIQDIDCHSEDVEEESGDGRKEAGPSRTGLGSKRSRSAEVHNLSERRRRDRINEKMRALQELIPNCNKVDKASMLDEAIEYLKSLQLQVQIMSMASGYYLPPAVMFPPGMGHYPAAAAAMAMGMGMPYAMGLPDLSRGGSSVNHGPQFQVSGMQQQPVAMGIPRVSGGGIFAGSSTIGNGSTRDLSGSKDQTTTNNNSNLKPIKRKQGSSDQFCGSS
Nature of the assay: co-IP; proteins synthesized in HeLa cell lysate, co-expressed or mixed 1 h at room temperature, diluted in PBS with 0.1% NP-40; bait captured with anti-MYC antibodies and protein G beads.

Take “phytochrome B (endogenous phyB) (from UniProt P14713 1-1172) (receptor)”: the binding result with PPK1:CFP (Arabidopsis) was “binds”.

On to “PPK1 used as prey (in vitro synthesized) (Arabidopsis) (enzyme)”, for which the binding entry in assay [1] is recorded as “binds”.
